The whole screen tested about 360,000 compounds, of which about 780 (0.22%) were called active. The inconclusive results got no clear call from the source; some entries with a clear call stand among them for comparison. Rule as the data show it: active = inhibition above about 35% (passing the limit was not always enough); inconclusive = no clear call, values can overlap the other calls.
Test system: Botulinum neurotoxin type F light chain protease (Clostridium botulinum)
Assay: BoNT/F light chain protease inhibitors, primary screen, biochemical, flow cytometry, MLPCN library (AID 588497); also: plate controls were buffer without enzyme for full effect and enzyme alone for no effect
Details: Multiplex microsphere protease cleavage assay, at 10 µM, active compounds read high

Structure (SMILES)	inhibition
COc1cc(/C=C(/C#N)c2ccccc2)ccc1Oc1ccc([N+](=O)[O-])cn1	inconclusive: -9.1%
O=C(Nc1ccc(S(=O)(=O)Nc2cnc3ccccc3n2)cc1)c1ccc(Cl)c([N+](=O)[O-])c1	inconclusive: 40.2%
COc1ccc(C2C=C(c3ccc(C)c(C)c3)Nc3ncnn32)c(OC)c1OC (stereo not given)	inactive: -10.1%
CCCn1c(=O)c(C(=O)Nc2ccccc2C)c(O)c2ccccc21	inconclusive: -19.1%
CCOC(=O)C1=C(c2ccccc2)NC(=O)NC1c1ccc(O)c(Cl)c1 (stereo not given)	inconclusive: 19.8%
C=CCC(=O)N1CCCC(C(=O)c2ccc(Cl)cc2)C1 (stereo not given)	inconclusive: 41.8%
CC(C)CN(CC(C)C)S(=O)(=O)c1cc([N+](=O)[O-])ccc1N1CCCCCC1	inconclusive: 21.4%
CC(=NNC(=O)COc1cccc(C)c1)c1cccnc1	inactive: -0.4%
O=C(O)c1ccc(NC(=O)c2ccccc2NC(=O)c2cccc(Br)c2)cc1	inconclusive: -28%
COc1ccc(C(=O)NCCS(=O)(=O)N2CCCC2)cc1	inconclusive: 1.3%
Cc1ccc(OCC(=O)Nc2ccc(Cl)cc2C(=O)c2ccccc2)cc1	inactive: -11.7%
N#Cc1nc(Cc2cccc3ccccc23)oc1NCc1ccco1	inactive: -0.8%
O=C(NCc1ccncc1)/C(=C/c1cccc([N+](=O)[O-])c1)NC(=O)c1ccccc1	active: 38.4%
Cc1ccc(OCC(=O)Nc2ccccc2F)cc1C	inactive: -2%
C/C(=N/NS(=O)(=O)c1cccc([N+](=O)[O-])c1)c1c[nH]c2ccccc12	inactive: 0.8%
O=C(NCCCn1ccnc1)/C(=C/c1ccco1)NC(=O)c1ccco1	inconclusive: -16.8%
COc1ccc(C(=O)NCC(C)NC(=O)c2ccc(OC)c(OC)c2)cc1OC (stereo not given)	inconclusive: 53.7%
Cc1cc2oc(C(=O)NC3CCS(=O)(=O)C3)c(C)c2cc1C (stereo not given)	inconclusive: -2.8%
O=C(NC1CCN(Cc2ccccc2)CC1)C1CCCN(S(=O)(=O)c2cccc3nonc23)C1 (stereo not given)	inconclusive: 19.1%
CC(C)c1nnc2n1N=C(c1ccc(Cl)cc1)CS2	inconclusive: 2.8%
CCN(CC)c1ccc(/C=C2\SC(=O)N(C(C)C)C2=O)o1	inconclusive: 19.5%
CCOC(=O)C[n+]1c(C)sc2ccc(OC)cc21	inconclusive: -19.9%
Cc1c(Cc2ccccc2)c(=O)oc2c(C)c(OCc3nn[nH]n3)ccc12	inactive: -26%

Structure (SMILES)	inhibition
CCC(C)[C@H](NC(=O)C1CC(=O)N(c2ccc3c(c2)OCCO3)C1)C(=O)NC1CCCC1 (stereo not given in full)	inactive: 2.9%
O=C(CCc1c[nH]c2ccccc12)NCCc1ccc(O)cc1	inactive: 12.9%
CCC(C)Nc1nc(-c2cccc(OC)c2O)nc2ccccc12 (stereo not given)	inconclusive: -9.6%
CCN(CC)C(=O)Cn1nc(-c2ccc(Cl)cc2)c2ccccc2c1=O	inconclusive: 0.9%
CC(C)[C@H](NC(=O)c1cccc(CN(Cc2ccccc2)C(=O)c2ccccc2)c1)C(=O)O	inconclusive: -102%
Cc1oc(-c2ccc(Cl)cc2)cc1C(=O)O	inconclusive: -92.3%
Clc1ccc(-c2csc(-c3ccno3)n2)cc1	inconclusive: -18.1%
COc1ccc(Nc2nc3ccccc3n2C)cc1	inconclusive: -1.6%
O=C1CCC(c2ccccc2)c2ccccc21 (stereo not given)	inconclusive: -7.6%
Cc1ccc(F)cc1NC(=O)N1CCCN(C(=O)OC(C)(C)C)CC1	inconclusive: 30.4%
COc1ccc(C(=O)CSc2[nH]c(=O)cc(C(F)(F)F)c2C#N)cc1	inactive: 6.2%
Cc1cc([N+](=O)[O-])ccc1-c1ccc(C2Nc3ccccc3C(=O)N2O)o1 (stereo not given)	inactive: -5.4%
Cc1ccc2cc3cc(C(=O)N4CC(C)CC(C)C4)oc3nc2c1 (stereo not given)	inconclusive: -18.9%
CC1CCN(C(=O)CSc2nnc(CNC(=O)COc3ccc(Cl)cc3)o2)CC1	inconclusive: -16.8%
COc1ccccc1N1CCN(CCCNC(=O)Nc2ccccc2C)CC1	inconclusive: -9.4%
CCOC(=O)c1cc(C#N)c(N2CCNCC2)nc1C(F)(F)F	inconclusive: -56.5%
CCOc1ccc(CN2CCCC(C(=O)c3ccccc3OC)C2)cc1 (stereo not given)	inconclusive: -10.5%
COCCn1c(C)nnc1SCC(=O)NNC(=O)c1ccc(Cl)cc1	inactive: -24.4%
COc1cccc(-n2c(C)cc(/C=C3\C(=N)N4N=C(CC(=O)N5CCOCC5)SC4=NC3=O)c2C)c1	inactive: 2%
Cc1cc2occ(CC(=O)N(CCC(C)C)c3c(N)n(Cc4ccccc4)c(=O)[nH]c3=O)c2cc1C	inconclusive: 14%
Cc1cc2cc3c(cc2nc1SCC(=O)N1CCCC1)OCCO3	inactive: 0.9%
COc1ccccc1NC(=O)c1ccccc1N(Cc1ccccc1)S(C)(=O)=O	inconclusive: 2.3%
Cc1ccc(C)c(-n2c(SCC(=O)NCC3CCCO3)nnc2-c2ccoc2C)c1 (stereo not given)	inconclusive: -4%

Three compounds picked at random from the list so far:
Structure (SMILES)	inhibition
CCC(C)[C@H](NC(=O)C1CC(=O)N(c2ccc3c(c2)OCCO3)C1)C(=O)NC1CCCC1 (stereo not given in full)	inactive: 2.9%
Clc1ccc(-c2csc(-c3ccno3)n2)cc1	inconclusive: -18.1%
O=C(CCc1c[nH]c2ccccc12)NCCc1ccc(O)cc1	inactive: 12.9%

Next records

Structure (SMILES)	inhibition
COc1ccccc1Oc1ccc2c(c1)C(=O)N(CC1CCCO1)C2=O (stereo not given)	inconclusive: 29.8%
Fc1cccc(NC(=S)NCc2ccccn2)c1	inactive: -3.6%
CN1CCN(C(=O)CNc2ccc(C(F)(F)F)cc2[N+](=O)[O-])CC1	inactive: -8.5%
CN(C)CCCNc1cc(-c2ccccc2)nc2cc(-c3cccc(F)c3)nn12	inconclusive: -32.5%
COc1ccc(C(=O)CC(=O)C(=O)Nc2cccc([N+](=O)[O-])c2C)cc1	inconclusive: -17.5%
Nc1nnnn1CC(=O)N/N=C/c1cccs1	inconclusive: -6.2%
CCC(=O)N1c2ccccc2C(N(C(=O)CC)c2ccccc2)CC1C (stereo not given)	inconclusive: -179%
Cc1ccc(C2N(c3ccc(Cl)cc3)C(=O)N3CCCN23)cc1 (stereo not given)	inconclusive: -45.5%
COc1ccc2c(c1)cc(C(=O)N[C@H](C(=O)N1CCC[C@H]1C(=O)O)C(C)C)n2C	inactive: -12.7%
COc1ccc(C(O)C(C)NC(C)C(O)c2ccc(OC)cc2)cc1 (stereo not given)	inconclusive: 11.7%
CN(C)C(=O)c1ccc(NC(=O)COc2ccc([N+](=O)[O-])cc2)cc1	inactive: 1.4%
CC(C)(C)Nc1nc(C(N)=O)nc(N2CCOCC2)n1	inactive: -4.7%
CC(=O)NC1CC2CCCC(C1)N2C(=O)Nc1cccc(C(C)=O)c1 (stereo not given)	inconclusive: 18.8%
O=C(CSc1nnc2scc(-c3ccccc3)n12)Nc1nsc(-c2ccc(Cl)cc2)n1	inactive: -4.6%
CCN(CC)S(=O)(=O)c1ccc2[nH]cc(C(=O)NC3CC3)c(=O)c2c1	inconclusive: -12.9%
CC1(C)CC(=O)C(C=NCCN2CCN(C(=S)Nc3ccc(F)cc3)CC2)=C(O)C1	inactive: -5.1%
CCn1c(=O)c(C(=O)Nc2cccnc2)c(O)c2ccccc21	active: 40.5%
O=C(O)c1cc(-c2ccc3c(c2)OCCO3)n[nH]1	inactive: -4%
COc1ccc(CCNC(=O)CC(=O)N/N=C/c2ccc(C(=O)O)cc2)cc1OC	inconclusive: -16.8%
Cc1ccc(S(=O)(=O)NC2CCC(C(=O)O)CC2)cc1 (stereo not given)	inactive: -2.6%
COc1ccc(NC(=O)O/N=C/c2c(C)nn(C(C)(C)C)c2C)cc1	inconclusive: -43.5%
COc1ccc2c3c(cccc13)OC2=O	inconclusive: 6.3%
O=C(Oc1ccc(Br)cc1C(=O)/C=C/c1ccccc1F)c1ccco1	inactive: -12.1%

Structure (SMILES)	inhibition
CCC(C(=O)NC(C)(C)C)N(Cc1ccccc1Cl)C(=O)c1snc(C(N)=O)c1N (stereo not given)	inconclusive: 32.2%
CCc1cc2c(NCc3ccccc3)nc(C)nc2s1	inconclusive: 10.7%
O=C(COc1ccc(Cl)cc1)NCc1nnc(SCC(=O)c2ccccc2)o1	inconclusive: -11.9%
CC(C)(C)C1CCc2onc(C(=O)Nc3cnn(Cc4ccc(F)cc4)c3)c2C1 (stereo not given)	inactive: 0.2%
Cc1noc(C(=O)Nc2ccc(F)c(Cl)c2)c1Cl	inconclusive: -6.6%
N/C(=N\S(=O)(=O)c1ccc(Cl)cc1)N1CCOCC1	inconclusive: 34.3%
O=C(c1cnc(Cl)c(Cl)c1)N1CCN(S(=O)(=O)c2ccc3ccccc3c2)CC1	inconclusive: -6.8%
CCOC(=O)CSc1nnc2c3ccccc3n(CC)c2n1	inconclusive: -19.6%
CN1CCN(CC(O)COc2ccc(C(=O)O)cc2)CC1 (stereo not given)	inconclusive: 9.2%
COC(=O)C1=C(C)N(C)C(=O)NC1c1c(O)ccc2ccccc12 (stereo not given)	inconclusive: -5%
O=C(NCCN1C(=O)S/C(=C\c2ccc(Cl)cc2Cl)C1=O)C1=COCCO1	inconclusive: -12.8%
Cc1cc(C)c(C)c(S(=O)(=O)N(C)CCc2ccccn2)c1C	inconclusive: 15.5%
Cc1ccc2nc(-c3cccc(Br)c3)c(Cc3cccc(Cl)c3)n2c1	inactive: -1.8%
O=C(c1ccc2ncsc2c1)N1CCCCC1	inactive: 3.1%
O=C(CCl)NC1(C(F)(F)F)C(=O)Nc2c1c(=O)[nH]c(=O)n2-c1ccccc1 (stereo not given)	inconclusive: 8.9%
O=C(NCCc1ccc(Cl)cc1)Nc1ccc(Cl)cc1	inconclusive: -3.8%
Cc1ccc(/C=C2\CCOC2=O)cc1	active: 35.3%
Cc1cc(C)n(NC(=S)NC2CCCC2)c(=O)c1C#N	inconclusive: -88.7%
CCOc1ccccc1OCC(=O)Nc1ccccc1C(=O)NC1CC1	inconclusive: -8%
C=CCn1c(=O)/c(=C/c2cc(OC)c(OC)c(OC)c2)s/c1=C(/C#N)c1nc2ccccc2n1C	active: 58.3%
COc1ccccc1/C=C/CN1CCC(n2nccc2NC(=O)C2CC2)CC1	inconclusive: 1.6%

Source: PubChem BioAssay AID588497 (NMMLSC, 2011)
